# Laboratory results: PubChem BioAssay AID1439 (NMMLSC, 2008)
# Sequences of proteins named here, by UniProt entry; tags and fusion partners are left off.
# UniProt P09471, whole entry, looked up: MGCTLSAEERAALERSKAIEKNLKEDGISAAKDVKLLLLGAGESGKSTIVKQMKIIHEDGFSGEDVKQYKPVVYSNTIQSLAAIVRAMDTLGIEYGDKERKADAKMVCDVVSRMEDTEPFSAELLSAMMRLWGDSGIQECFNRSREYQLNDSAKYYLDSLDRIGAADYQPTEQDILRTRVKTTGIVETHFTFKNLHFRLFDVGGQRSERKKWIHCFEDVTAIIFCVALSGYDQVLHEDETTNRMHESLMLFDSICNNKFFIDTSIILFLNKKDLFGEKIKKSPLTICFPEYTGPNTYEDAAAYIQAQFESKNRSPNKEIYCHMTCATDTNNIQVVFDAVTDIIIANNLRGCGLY
# Out of some 220,000 compounds screened, about 770 (0.35%) were called active. The inconclusive results got no clear call from the source; some entries with a clear call stand among them for comparison. Cut-off read from the data, not from the text of the source: active = binding response below about 49% or above about 150%; inconclusive = no clear call, values can overlap the other calls; inactive = in between.
# Biological target: Guanine nucleotide-binding protein G(o) subunit alpha (Homo sapiens) (UniProt P09471)
# Assay: RGS7-Galphao binding modulators, primary screen, biochemical, multiplexed bead flow cytometry (AID 1439);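 note: fluorescent Galphao held in activated GDP-AlF4 state binding bead-coupled RGS7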
# Conditions: at 10 µM, actives lie on both sides
row,Compound,binding response (% of control)
1,Cc1ccc(NC(=O)O/N=C/c2c(C)nn(C(C)(C)C)c2C)cc1Cl,inconclusive: 105%
2,Cc1nn(-c2ccccc2)c(C)c1/C=N/n1c(-c2ccccc2Br)n[nH]c1=S,inconclusive: 100%
3,Nc1nc(NCc2ccccc2)nc(NCCO)c1[N+](=O)[O-],inconclusive: 133%
4,NS(=O)(=O)c1cccc(NC(=O)COC(=O)C2CCN(S(=O)(=O)c3cccs3)CC2)c1,inconclusive: 187%
5,C=CCc1cccc(/C=N/NC(=O)c2ccccc2Br)c1O,active: 24.6%
6,Cn1cccc1CC(=O)N/N=C/c1ccco1,inconclusive: 96.1%
7,Cc1cccn2c(=O)c(/C=N/O)c(NCc3ccccc3)nc12,inconclusive: 141%
8,CC(C1CC2CCC1C2)n1c(-c2ccco2)n[nH]c1=S (stereo unspecified),inconclusive: 227%
9,Nc1cc(N)nc(CS)n1,inconclusive: 108%
10,O=C(CCCc1ccccc1)Nc1ccc(S(=O)(=O)N2CCOCC2)cc1,inconclusive: 105%
11,COc1ccc(-n2c(/C=C3\C(=O)N(C)c4ccccc43)nc3ccccc3c2=O)cc1,inconclusive: 113%
12,O=c1c2[nH]c3cccc(Cl)c3c2ncn1Cc1ccco1,inconclusive: -16.9%
13,Cc1cc(N2C(=O)C3C4CC(c5ccccc5)C(C4)C3C2=O)no1 (stereo unspecified),inconclusive: 101%
14,CC(C)(C)c1ccc(C(=O)O)c(C(=O)c2ccc(C(=O)O)cc2)c1,inconclusive: 337%
15,CCc1nnc(NC(=O)C2=CCN(S(=O)(=O)c3ccc(F)cc3)CC2)s1,inconclusive: 86.7%
16,NC(=O)CN(c1ccc([N+](=O)[O-])cc1)S(=O)(=O)c1ccccc1,inactive: 102%
17,CC(C)C[C@H](NC(=O)c1[nH]cnc1C(=O)N[C@@H](C)c1ccccc1)C(=O)OCc1ccccc1,inconclusive: 114%
18,NC(=O)c1ccc(NC(=O)c2cnc3ccccc3n2)cc1,inconclusive: 81.1%
19,CSc1ccc(-c2nc(O)c3cnccn23)cc1,inactive: 100%
20,C=C(C)CNC(=S)N/N=C/c1c(F)cccc1F,inconclusive: 103%
21,Nc1ccccc1N1CCOCC1,inactive: 99.5%
22,CCN(C(=O)COC(=O)/C=C/c1c(C)nn(-c2ccccc2)c1C)C1CCS(=O)(=O)C1 (stereo unspecified),inconclusive: 96.2%
23,COc1ccc(/C=C2\N=C3CCCN3C2=O)cc1,inconclusive: 105%
24,Cc1ccc(CCN2CC(C(=O)NCCCN3CCOCC3)CC2=O)cc1 (stereo unspecified),inactive: 84.6%
25,COc1cccc(OC)c1OCCCN1CCOCC1,inactive: 99.3%
26,Cc1nnc(SCc2nc3sc4c(c3c(=O)[nH]2)CCCC4)[nH]c1=O,inconclusive: 98%
